ChEMBL document CHEMBL4138293, “Modified Abietane Diterpenoids from Whole Plants of Selaginella moellendorffii” (J Nat Prod, 2018)
pIC50: −log10 of the molar value.

How the values were obtained:
MCF7 = experiment: Growth inhibition of human MCF7 cells after 48 hrs by MTS assay; format: functional, cell-based; conditions: MCF7, 48 h
A549 = experiment: Growth inhibition of human A549 cells after 48 hrs by MTS assay; format: functional, cell-based; conditions: A549, 48 h

CC(=O)O[C@H]1C(=O)[C@@]2(C)[C@H]([C@H](OC(=O)c3ccccc3)[C@]3(O)C[C@H](OC(=O)[C@H](O)[C@@H](NC(=O)c4ccccc4)c4ccccc4)C(C)=C1C3(C)C)[C@]1(OC(C)=O)CO[C@@H]1C[C@@H]2O [PACLITAXEL]
pIC50 (MCF7): > 8.10 | pIC50 (A549): > 8.10
